Reference: patent US10730857B2, “Benzocyanine compounds” (Pierce Biotechnology, Inc., priority 2011, dated 2020)

Legend:
[1] = system: goat anti-mouse (GAM) antibodies; assay: Labeling efficiency (degree of labeling) of goat anti-mouse antibody
[2] = system: goat anti-rabbit (GAR) antibodies; assay: Labeling efficiency (degree of labeling) of goat anti-rabbit antibody
[3] = Absorbance/emission spectral properties and fluorescence intensity of the dyes; type: physicochemical; conditions: on average
Description: Emission/excitation profiles for inventive and commercial compounds was determined by reconstituting the compounds in DMF at 10 mg/ml and then diluting in PBS buffer pH 7.2 to 10 μg/ml.

[4] = GAM-2X molar excess, mole dye to mole protein
[5] = GAM, another set of experiments
[6] = GAR, * Company B conjugates precipitated above 10×

Compound	degree of labeling [1, 4]	Mole Dye/Mole Protein Ratio @ 2.5 X [1, 5]	Mole Dye/Mole Protein Ratio @ 5 X [1, 5]	Mole Dye/Mole Protein Ratio @ 7.5 X [1, 5]	Mole Dye/Mole Protein Ratio @ 10 X [1, 5]	Mole Dye/Mole Protein Ratio @ 15 X [1, 5]	Mole Dye/Mole Protein Ratio @ 5 X ([2]; GAR)	Mole Dye/Mole Protein Ratio @ 15 X [2, 6]	Mole Dye/Mole Protein Ratio @ 25 X [2, 6]	intensity lower compared to Company A Compound [3] [%]	degree of labeling ([1]; GAM-4X molar excess, two values where printed)	degree of labeling ([2]; GAR-4X molar excess, two values where printed)
COCC[N+]1=C(/C=C/C=C/C=C2/N(CCCCCC(=O)O)c3ccc4c(S(=O)(=O)[O-])cc(S(=O)(=O)[O-])cc4c3C2(C)C)C(C)(CCCS(=O)(=O)[O-])c2c1ccc1c(S(=O)(=O)[O-])cc(S(=O)(=O)[O-])cc21.[Na+].[Na+].[Na+].[Na+] (stereo not shown) [679 Compound 1, 6-((E)-2-((2E,4E)-5-(3-(2-methoxyethyl)-1-methyl-6,8-disulfonato-1-(3-sulfonatopropyl)-1H-benzo[e]indol-3-ium-2-yl)penta-2,4-dien-1-ylidene)-1,1-dimethyl-6,8-disulfonato-1H-benzo[e]indol-3(2H)-yl)hexanoate]	2.0	1.8	4.1	6.6	8.5	12.9	4.8	10.6	14.4			
COCC[N+]1=C(/C=C/C=C/C=C2/N(CCCCCC(=O)ON3C(=O)CCC3=O)c3ccc4c(S(=O)(=O)[O-])cc(S(=O)(=O)O)cc4c3C2(C)C)C(C)(CCCS(=O)(=O)O)c2c1ccc1c(S(=O)(=O)O)cc(S(=O)(=O)O)cc21 (stereo not shown) [679 Compound 1/1-NHS]										20		
COCCOCCOCCOCC[N+]1=C(/C=C/C=C/C=C2/N(CCOCCOCCOCCOCCC(=O)ON3C(=O)CCC3=O)c3ccc4c(S(=O)(=O)[O-])cc(S(=O)(=O)O)cc4c3C2(C)CCOCCOCCOCCOC)C(C)(CCOCCOCCOCCOC)c2c1ccc1c(S(=O)(=O)O)cc(S(=O)(=O)O)cc21 (stereo not shown) [Compound V08-15173]		2.5	4.9	7.1	8.9		4.6			20		
Cy5.5 [reference compound]	1.6										2.6	2.2
